In the supplement of paper PMC3334620:
Over roughly 33,000 sequences, “E-score (-0.5 to 0.5)” has its median near -0.016; the highest 2% begin near 0.3. This is one part of the list.

Target: T1, Yer184c (UniProt P39961)
T1 sequence: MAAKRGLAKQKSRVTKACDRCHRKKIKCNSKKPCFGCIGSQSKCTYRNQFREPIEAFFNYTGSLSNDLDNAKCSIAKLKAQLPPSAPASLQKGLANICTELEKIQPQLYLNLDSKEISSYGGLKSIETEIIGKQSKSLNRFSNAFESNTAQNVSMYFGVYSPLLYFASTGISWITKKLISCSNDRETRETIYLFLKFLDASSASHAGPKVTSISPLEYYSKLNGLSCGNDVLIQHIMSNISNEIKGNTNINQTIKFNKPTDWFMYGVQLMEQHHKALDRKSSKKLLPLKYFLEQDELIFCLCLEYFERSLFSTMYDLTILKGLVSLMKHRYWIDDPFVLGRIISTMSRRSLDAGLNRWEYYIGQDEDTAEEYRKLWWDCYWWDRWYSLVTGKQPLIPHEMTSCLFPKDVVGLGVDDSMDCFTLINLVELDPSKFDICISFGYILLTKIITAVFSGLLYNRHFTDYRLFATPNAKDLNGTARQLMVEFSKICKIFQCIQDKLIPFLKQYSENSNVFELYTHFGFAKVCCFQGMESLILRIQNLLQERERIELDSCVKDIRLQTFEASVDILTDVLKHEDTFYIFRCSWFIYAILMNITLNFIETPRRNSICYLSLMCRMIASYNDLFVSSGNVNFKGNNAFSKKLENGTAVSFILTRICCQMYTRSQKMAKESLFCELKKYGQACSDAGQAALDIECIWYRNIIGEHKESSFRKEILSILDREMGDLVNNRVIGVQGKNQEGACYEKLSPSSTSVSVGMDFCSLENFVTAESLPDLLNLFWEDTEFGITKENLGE
Experiment: PBM E-score (8-mer binding enrichment) (E-score (-0.5 to 0.5)); higher = stronger / more preferred TF binding
Settings: protein concentration: 100 nM; construct: GST-full length
Procedure, shortened: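 Universal all-10-mer Agilent arrays, double-stranded by primer extension on fresh or once-stripped slides, were probed with about 100-200 nM GST-tagged yeast transcription factors made by PURExpress. Fluorescent anti-GST detected bound protein, and masliner normalised the scans. E-scores from the Universal PBM Analysis Suite were given to each ungapped eight-base word pooled with its reverse complement.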

Sequence	PBM E-score
GCTTAGTA	0.0166
ATTTTATC	0.193
AGAGGCCC	-0.306
AGCGATTC	-0.049
GCCAACCC	-0.059
GAGGTTAA	0.00325
ACTCCTTG	-0.197
ACGCTACC	-0.246
AAATACGA	0.0747
GCCATCGA	0.0494
CAGGAGGC	-0.189
CACGAGGC	0.0429
CGGCAAAA	0.152
CGGTCGTA	-0.0403
GCAAAAGC	0.0874
GGGGTCCA	-0.319
CAAGGTAG	-0.161
ACGAGGCA	-0.161
ATCTAAAT	0.211
CTTCGGTC	0.309
CTTTCGCA	-0.104
AACTAAAC	-0.015
CGCCGGAG	0.222
CGTGTGAG	-0.101
CATCGACC	0.00819

Two records drawn at random from those above:
Sequence	PBM E-score
GGGGTCCA	-0.319
ACGAGGCA	-0.161

Next results follow.

Sequence	PBM E-score
GAATGATA	0.301
AAAACTCA	0.229
ACGGCACT	0.0818
AAGCAATT	0.244
AGATGTGA	-0.00263
TATGAAGA	0.184
GCATTTTA	0.12
CTTACGCC	-0.0367
TACATCGA	-0.0985
ATCGGGTA	-0.0845
CCAGTTCG	0.00522
AGGAATCC	-0.0673
ATCGAAAC	0.212
GTACCAAC	0.114
CCTGCGCA	-0.316
GCCTAAAA	-0.0985
CAGGCCCA	-0.211
ACGCTGAC	-0.00324
CCGTCCTA	-0.23
ACAGCTAT	-0.241
ACGCGTTG	-0.036
GCTGTTAA	0.129
CAGTGACG	0.0319
AGACAGGC	-0.135
AAGGTCCT	-0.162

Reformatted in CSV form: entries from further up
Sequence,PBM E-score
AAGCAATT,0.244
AGATGTGA,-0.00263
TATGAAGA,0.184
GCATTTTA,0.12

The listing continues:

Sequence	PBM E-score
ATACACGA	0.104
AATCGAGT	0.0164
CATACATA	0.0905
AATAACGA	0.068
CGATACCC	-0.221
AGTGTTCG	0.128
CCACCACC	-0.095
AATTGAAT	0.162
GTGACCCA	-0.0367
CTACCACC	-0.295
CGTGCACG	0.0593
ATCCGCGG	0.359
CGACCACC	-0.216
GATGTTTA	0.101
ATAATAGA	0.116
AATCTAGC	-0.217
TAGCATCA	-0.0197
TCCCAAAA	0.0904
GCATCAGC	0.0495
CTCCGTTC	0.239
CACAGACC	0.101
CAAGCAGG	-0.19
ACGGCCAA	0.192
CGTCTCGC	-0.133
AGCAACTC	-0.0433

Sequence	PBM E-score
AATCTGAA	-0.035
CCTTACGA	-0.0958
ATCTCTAA	0.153
TCATAACA	0.162
ATTTATCC	0.314
TAAAATTA	0.341
AGAACCCG	-0.0418
CACATAGA	0.0291
ACAGATCA	-0.0248
GGCGTGGA	-0.316
CACTCTCA	-0.0888
GAAATTAA	0.337
AAAGGCTC	-0.112
ACCTCTTA	0.0999
TCTCACAA	0.0454
CTGATTCA	0.0858
CAGTTGGA	-0.171
GACTATCA	-0.186
CGTCGATA	-0.0853
ATCAAAAC	0.169
ATCAGACC	-0.0234
GATGTAGC	-0.205
GGAAGTCC	0.0479
AATGAGCT	0.0628
ATCGCAAC	-0.0401

Sequence	PBM E-score
AATATGCA	-0.0575
ACTGGTCG	-0.161
GACAGCAA	0.0223
CGGTAAAG	0.314
CTGGACCC	-0.25
ACGATCTA	-0.216
ACTCAAGC	0.0281
GATCGCAC	-0.0597
CCCTGATA	-0.286
GAAGAGTC	-0.0527
CATTGCCC	-0.277
ATGTTAAA	0.146
ACGGATGG	0.0959
ACGAGGGC	-0.2
GCCTCATA	-0.0188
AGTAATCC	0.0412
AGGGCGAG	-0.233
GATTCCGA	0.33
AAACTAGT	0.0141
ATGAGCGC	0.088
CGCTCTTC	-0.217
AAAGATTA	0.226
GGACAGAA	0.0525
ACTCGCCG	0.131
CATCCCGC	-0.0361

Sequence	PBM E-score
GTACACCA	-0.145
CAGACTCA	-0.0639
ATACGAGG	-0.142
AGCCGCGA	0.133
GGACGATA	-0.117
CGTCGCGC	-0.102
CGTTCAAC	0.117
CTTGCTGC	-0.16
GATGCAAC	-0.132
ACCGTGAG	-0.158
CTAGATCA	-0.183
TTAAGGAA	0.141
ACACGAAG	0.157
AGGAAAGG	-0.078
TCGCCTAA	-0.00862
CCTAACAG	0.11
ACGTTATG	0.0299
CATGGCTA	-0.146
GCTTATTA	0.0913
AACTCGAA	0.0933
AGCTCATC	-0.196
GACGGGCA	-0.131
CGCAGTAC	-0.191
AGCGCTTC	0.0494
CAAAATGG	0.0666

Sequence	PBM E-score
CCCGAACG	0.127
TAACGGAA	0.298
ACCCGGGT	0.299
CACTTGGG	-0.151
ACATGGTG	-0.0796
AAGAGCAT	-0.17
ACGGGACC	-0.109
CTCGAGGA	-0.056
ATGGCAAG	-0.0609
AGTATCAG	-0.0309
AAATGTTC	0.057
ATTCCGCA	0.139
CTTTGAGA	0.175
AACCCATG	-0.0873
CCCCCTTC	-0.435
TGCCACAA	0.129
CAACATTC	-0.085
CGTTACGC	0.0345
CTAAAAGC	-0.052
ATAAGTGA	-0.0589
AATCAGGA	-0.0905
AGCTGCCC	0.034

As entered above:
ACCCGGGT | PBM E-score: 0.299
CAACATTC | PBM E-score: -0.085
